Among all 53,000 sequences or so, about 3,700 (7%) were called active.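 Rule for the calls: active = gene knockdowns whose robust z-score for IL-1 alpha signal is at least 2 or at most -2, so actives lie on both sides; inactive = the rest.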 The list shows a part of the results.

Here are results for 107 sequences from PubChem BioAssay AID1508600 (Functional Genomics Laboratory (NCATS/FGL), 2020).

This assay can be described thus: Components of the Cytosolic LPS Sensing Pathway: Gene Identification via Genome-wide siRNA Screen.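 Note: robust z of the log signal after scaling to non-targeting control siRNA wells of the plate.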 Conditions: RAW264.7 macrophages, IL-1a HTRF, actives lie on both sides, screened at 100 nM (by protocol), cells primed 5 h with Pam3CSK4 first. The procedure, abridged: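 Mouse macrophage line RAW264.7 is transfected with siRNA (100 nM final), grown 48h, primed with TLR ligand Pam3CSK4 5 h and given intracellular LipidA 24 h. IL-1a in supernatant is read by HTRF and viability by luminescence.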
Background: Time-resolved FRET reads energy transfer from a long-lived donor to a nearby acceptor.
On to GCCUCAUCGUAUAUAAAAUTT against Atp5mpl, for which the z-score was inactive: -1.64.
With GCCUUUCGAACUUGGUUCGTT against Usp44, the z-score was inactive: 0.0967.
The figure for GGUACUGGAAAGAAAUGAGTT against Exph5 is inactive: 0.356.
As to GGAGAACAACAAAGACAAGTT against Hoxb8, the z-score is active: 2.69.
In the case of GGGUCUUCACUUUGAACCUTT against Adk, the z-score is inactive: 0.878.
GCAUCGAUAUCAGGACAUGTT against Deaf1: the z-score was inactive: 1.07.
Consider GGGUCCAGUCAAUCAGAAATT against Znhit2, for which the z-score was inactive: -0.382.
As to CCCUUACGGGUUGACCUUGTT against Nop53, the z-score is inactive: 0.822.
Take GGGAAGAAUGGACAAAUAATT against Tmem100: the z-score was inactive: 1.13.
On to CGUACACCAUUCAAGGUACTT against Kif20a, for which the z-score was inactive: -0.589.
Consider GGUUCUUGUUUCAUUUUGCTT against Cdnf, for which the z-score was inactive: 0.819.
For GGUCCAAAAAUGGCUUGGCTT against Fabp9, the z-score is inactive: 0.656.
As to CCUCAGAUGGAGGUUACUCTT against Inha, the z-score is inactive: 0.394.
As to GGUAUCACCUUCGUUACUATT against Unk, the z-score is inactive: -0.74.
Turning to GGGCCAACCCAGAAAAACATT against Plekha7, the z-score was inactive: -0.515.
As to GGUCGGGAAGUGGUAAAACTT against Traf3ip1, the z-score was inactive: 0.00227.
For GGUUGAAAAAGAACAGUGCTT against Bnc1, the z-score is inactive: 0.64.
Take GGAUUUCGACAAUAUGAAGTT against Chrnb2: the z-score is inactive: -1.8.
Take GGAUGAACGGAGGAAAAUUTT against Sox13: the z-score was inactive: -0.354.
With GGACUAUAAAAUGUCAUGGTT against Etv2, the z-score was inactive: 0.00467.
GGACAGUUUACUCCAGAUATT against Foxc1: the z-score was active: 2.84.
The figure for GGAAGCAGAUGCUAUUUAUTT against Prpf6 is inactive: -1.49; for GCUAUCGGGUAUGGUUGCUTT against Prrxl1 it is inactive: 0.153.
Turning to CCAUAUGAAGGCGCAUGGATT against Zfp516, the z-score is inactive: -0.771.
As to GGUACUGAGUGUGUUUUGCTT against Olfr1364, the z-score is inactive: -0.00522.
For “GCACUGUAUUCUUGAGCACTT against 1700020L24Rik”, the z-score was active: 2.06.
For CCACAUGGAACCACUAACUTT against Wnt11, the z-score was inactive: -0.357.
For the sequence GGAUGUACCACCUUUCUGGTT against Klhl6, the z-score is inactive: -1.28.
Consider GGAUUUCAACAUCUAUGGCTT against Tpra1, for which the z-score is inactive: -1.9.
For GCUUGUCCUUUUUAGACAATT against Ipmk, the z-score was inactive: -0.0846.
The same measure for CCGCUUCAGAUCUUUCGAGTT against Dclk1: inactive: -1.44.
The same measure for GGACUUUCACAGACCACUUTT against Rgma: inactive: 0.999; for GGAGUCAAGCUAGAAGUUUTT against Cr1l: inactive: -0.9.
On to GGCCAGCUGAGCUUAAAGATT against Ccna2, for which the z-score is inactive: -0.954.
Regarding GCCCUCUCCAAACAUUGAATT against Neo1, the z-score is inactive: 0.0936.
Regarding GGCCAUGGGUAUUAAUGACTT against Dhx8, the z-score was inactive: -1.82.
In the case of GGUGAAGGUGCCUUCCAAATT against Il27ra, the z-score was active: 2.91.
As for CCGUCAUACUCCGUGAUUCTT against Samd11, the z-score was inactive: 0.193.
As for GCUACCUGUCUGGACAUUUTT against Gfra3, the z-score was inactive: 0.421.
Turning to GGCUCGUUCCAACCCUUUATT against Dbx1, the z-score is inactive: -0.56.
In the case of CGAAUUCAUACCAAGAAAGTT against Myo3a, the z-score was inactive: 0.477.
Take GGAAGAAAUGGAAUUGAAGTT against Pcdhga6: the z-score is inactive: 0.649.
For the sequence GCCAAUGAAAAACACCACUTT against Adam12, the z-score is inactive: -0.765.
Regarding “GGCCAGGUGUUUAAUCUCATT against 9930104L06Rik”, the z-score is inactive: 1.16.
As for GCAAAAAAUCACUUCGAGUTT against Mgat4a, the z-score is inactive: -0.377.
For the sequence CCCUGACAGAAGUGGUGAATT against Pik3r5, the z-score is inactive: -0.763.
GCUGUUAUCAACUUACUAATT against Rpe: the z-score was inactive: 0.34.
As to GGACAGCAUGAACUAACCCTT against Ednra, the z-score is inactive: -0.672.
With CCACCAGAUACAUAUUUGUTT against Gnpnat1, the z-score is inactive: -0.352.
As to GCAGCCAAGUGGGUAACUUTT against Nicn1, the z-score was inactive: 0.474.
On to CCAGCAAAUAUCCUAGUAATT against Cdk19, for which the z-score is inactive: 0.111.
With GGCUCACUCUCCAUUCUACTT against Asb6, the z-score was inactive: -0.902.
For the sequence CAAUGACAGCAGAUGACGUTT against Crabp2, the z-score is inactive: 0.0834.
For CCGGAUUCGAGAGGUGAUGTT against Lrrc52, the z-score is inactive: 0.0804.
In the case of GCUACUUAUCUGUUGGAAUTT against Nlrp4f, the z-score is inactive: 0.755.
The figure for GGGUUAAACCACAUAUCCATT against Spata9 is inactive: -1.06.
As for GGAAAAUGAGCUGAGGAAATT against Fmnl2, the z-score is inactive: -0.184.
Turning to GGAUAGACACUAGGAUCCUTT against Pdcd1lg2, the z-score is inactive: 0.721.
The figure for GGUUGAUGUGCUACAAGUCTT against Arhgef38 is inactive: 1.76; for GGAACGUGGAUCUUUUUAUTT against Wiz it is active: 2.42.
For GGCAGCAGUGAAGAAAGUATT against Olfr131, the z-score is inactive: -1.97.
With GGGUGAAAUAUUCUAUUCATT against Zfp711, the z-score was inactive: 1.72.
As for CGCGGUAAAUACAAGGAGGTT against Klc4, the z-score is inactive: 0.119.
Regarding GCUAUAAUUUGACAGUUAGTT against Lrba, the z-score was inactive: 0.0367.
As for GGAAAUAAGAAUGUAGUGATT against Ahcyl1, the z-score was inactive: -1.65.
Regarding GCAGUUGAUGAUAAUGUGATT against Pot1b, the z-score is inactive: -0.0269.
As for GGGUUGUUUAAAAGGCCUUTT against Tmed2, the z-score is inactive: 1.12.
For GGAAAGUUACAACAGAUAATT against Pkn2, the z-score is inactive: 0.215.
On to “CCACCUUCUAUCAGCAAAUTT against 4930433I11Rik”, for which the z-score was inactive: -0.863.
The same measure for GCUGAAGAAGUGCUCUUCUTT against Rarres2: inactive: -0.78; for GGACUAGCAAGCUCUUCAGTT against Fancd2: inactive: -0.578.
As for GGAGACAAUGGACAAGAAGTT against Dnal4, the z-score was inactive: 0.272.
Turning to CCACGAGGAGCUCAUUUUCTT against Dhfr, the z-score was inactive: 0.385.
GGUCAUGCUCAUCUCCUCCTT against Nsmf: the z-score was inactive: 0.438.
The same measure for GGUUUGUCGAAUUGUUGUATT against Ostn: inactive: 0.148; for GCUGUACACAGUGAGGAAGTT against Gcat: active: 5.42.
As to GGACAUACAAAUCAGGUGGTT against C2cd2, the z-score was inactive: -0.934.
Turning to GUUAGGUGACUACACUACATT against Zfp644, the z-score is inactive: -0.8.
CCAGGAAUCUGAGAUGAUGTT against Fam174c: the z-score was inactive: -1.02.
GCGGCAGAUCUUCGAUUUCTT against Nkain1: the z-score was inactive: 0.168.
Consider GGAAGUAAGAGACUGUGAGTT against Nt5c3b, for which the z-score is inactive: 0.587.
As to GGAGAUCCUAGGCUUGAACTT against Vsx2, the z-score is inactive: 0.279.
Turning to GCUCUACUGCUUCUUAGUCTT against Olfr965, the z-score was active: -2.4.
Turning to GGGUGACAUUGUCUAUAUCTT against Sorbs3, the z-score was inactive: 0.171.
Regarding GCAUAACAAGCAACUUAAGTT against Bms1, the z-score was inactive: 1.05.
For the sequence GGACCUCAAAGACAGAGAUTT against Manf, the z-score is inactive: -0.845.
In the case of CCCGUUCGUGCAUGAGUUATT against Lpcat4, the z-score is inactive: 0.532.
In the case of GGAAGUAGAUUAGAUGGUATT against Akt3, the z-score is inactive: 0.52.
Take GGUCAGAAAUUCUAAGUUGTT against Gpatch2: the z-score was inactive: 1.09.
GGUGAAUCUAUUUACCUGCTT against Fam71d: the z-score was inactive: 0.317.
Take GGUGGAAUCUCCUGAGAGUTT against Smarcd2: the z-score was inactive: -0.521.
Turning to CCUCACCUAUGGCUAUGUCTT against Itga5, the z-score is inactive: -0.926.
Turning to UUCCAAUCCACAUAUGUUUTT against Tusc1, the z-score was inactive: 0.495.
The same measure for GGAAAAACAUGUACAAAGATT against Xdh: inactive: -0.6.
Consider GCCUUUUAAUAGAUGUCAUTT against Vta1, for which the z-score is inactive: -0.201.
As for CCAUGUGACAGCAUUGUUGTT against Axin1, the z-score is inactive: 0.754.
Turning to GGGCUUUUAUGUUUAACUUTT against Itpr3, the z-score was inactive: 0.927.
In the case of GCUGGCUCUAAUACCCAUCTT against Mfsd3, the z-score was inactive: -0.332.
The same measure for GGGUUUUGCAUUACACAAGTT against Notch3: inactive: 1.04.
Consider GGCAAGAAGUCUGACAACATT against Gng4, for which the z-score is inactive: -0.587.
With GGCAAGAUCAAAGAGAAGATT against Psmc3ip, the z-score was inactive: 0.0145.
The same measure for GGAGACUCUACUAAUCAUCTT against Pigh: inactive: -0.157; for GUCUAGCACAUUCUUUGGCTT against Olfr1107: inactive: -1.27; for GGUCAGAUUCGGAAACCAGTT against Ccdc59: inactive: 0.173.
With GGGCAAUUUCAAACUAUUATT against Myf5, the z-score was inactive: 1.48.
Turning to GCCUGUAGUCAGAUAUUUCTT against Hdgf, the z-score was inactive: -0.109.
The same measure for CGGAGUUGAGCCAGAAAAATT against Fbxo31: inactive: -0.777.
